Measured data: PubChem BioAssay AID504784 (Drosophila RNAi Screening Center, 2011)
Purpose: 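Fly genes whose silencing alters how much lipid cells keep in droplets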 (primary screen). Cells: Drosophila Kc167 embryonic cells. Reagent: long dsRNA against Drosophila genes, about 250 ng dsRNA per well. Duration: 4 days. Challenge: cells fed 400 µM oleic acid bound to BSA. Read-out: 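Cells imaged and segmented; ratio of lipid droplet area to nuclear area, log-transformed, then normalised as a B-score over the screen; higher means more stored lipid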. Direction: droplet/nuclear area B-score: higher = more stored lipid (overstorage).
The screen tested about 17,000 reagents; below is an unselected part of those that have a named target and a result. 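Each column is one replicate's B-score; the combined score over replicates was not deposited, so single values may mislead.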 A plus sign joins genes that one reagent is predicted to hit. Further read-outs or replicates are left out here. Reagent sequences are not shown.

Gene,dsRNA,"droplet/nuclear area B-score, replicate 1","droplet/nuclear area B-score, replicate 2"
bol,DRSC08964,1.33,-0.168
bol,DRSC10444,-0.117,-0.408
bol,DRSC11329,0.377,0.0827
Trhn,DRSC08621,0.22,2.51
CG12470,DRSC18620,-0.936,-4.46
verm,DRSC11038,0.81,-0.609
ebd1,DRSC08565,-0.00497,
lama,DRSC11361,-0.924,0.844
stretch (retired record),DRSC14347,1.8,-0.0759
stretch (retired record),DRSC14512,0.563,0.112
stretch (retired record),DRSC14541,0.192,4.05
stretch (retired record),DRSC14542,-2.97,-0.0416
stretch (retired record),DRSC14543,-1.26,-1.43
stretch (retired record),DRSC23038,-0.248,-0.705
CG15109,DRSC06536,-0.252,-0.987
primo-2 + primo-1,DRSC16511,0.484,0.0106
Cyp313a3,DRSC16626,0.0967,-0.277
Vta1,DRSC08604,-1.71,-0.873
Vta1,DRSC22848,1.41,-4.08
Atg13,DRSC16228,-0.0478,0.0259
CG2898,DRSC18238,-0.0471,-1.5
CG32568,DRSC19913,-0.308,-0.516
CG6421,DRSC07420,0.0423,-1.21
CG31199,DRSC15284,-0.845,-0.432
fzo,DRSC16954,-0.619,1.1
CG17477,DRSC15239,0.294,0.368
spdi,DRSC18487,-1.61,
spdi,DRSC18488,1.13,1.56
ghi,DRSC08985,-0.581,-0.489
nullo,DRSC18807,-1.32,-0.114
tobi,DRSC14435,-0.802,0.0134
Ir52b,DRSC06263,1.08,2.17
Tnks,DRSC14154,-1.15,0.142
CG6865,DRSC10732,1.64,-0.343
CG13727,DRSC10055,0.348,-1.47
PolE4,DRSC04105,1.43,0.52
par-6,DRSC20359,0.166,-0.105
Hsp70Bb + Hsp70Ba + Hsp70Bc + 1 more,DRSC21247,4.65,4.57
Hsp70Bb + Hsp70Ba + Hsp70Bc + 1 more,DRSC21248,3.04,2.56
CG41520,DRSC21102,-0.0387,-0.399
Gmap,DRSC19988,-0.804,0.359
Gmap,DRSC20057,-1.16,-0.84
HisT,DRSC05051,0.769,-0.664
HisT,DRSC06405,2.76,
CG9497,DRSC03234,1.3,2.53
Nadk1a,DRSC05431,2.32,0.866
Nadk1a,DRSC06963,0.0392,0.179
CG18048,DRSC12573,-0.459,-0.655
CG12279,DRSC14495,0.999,-1.39
bft (retired record),DRSC21354,1.67,-3.22
CG43867,DRSC17836,0.337,-0.887
CG43867,DRSC17837,-3.25,2.49
CG43867,DRSC17943,1.66,-0.723
ems,DRSC16941,0.034,0.458
subdued,DRSC15137,-0.0237,1.5
unc-13,DRSC17192,-1.75,0.379
unc-13,DRSC17193,-1,0.247
unc-13,DRSC17223,2.23,

3 consecutive entries already listed:
Gene,dsRNA,"droplet/nuclear area B-score, replicate 1","droplet/nuclear area B-score, replicate 2"
CG41520,DRSC21102,-0.0387,-0.399
Gmap,DRSC19988,-0.804,0.359
Gmap,DRSC20057,-1.16,-0.84
